Primary screen of a compound library

Chains of the proteins cited; added tags and fusions are not shown. Residues count along the entry.
UniProt P9WPC5, whole entry: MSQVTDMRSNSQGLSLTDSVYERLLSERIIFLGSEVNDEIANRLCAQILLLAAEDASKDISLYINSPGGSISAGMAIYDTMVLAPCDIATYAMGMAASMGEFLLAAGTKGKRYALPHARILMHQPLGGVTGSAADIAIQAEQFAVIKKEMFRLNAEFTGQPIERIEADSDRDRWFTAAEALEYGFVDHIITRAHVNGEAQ
UniProt P9WPC3, whole entry partner: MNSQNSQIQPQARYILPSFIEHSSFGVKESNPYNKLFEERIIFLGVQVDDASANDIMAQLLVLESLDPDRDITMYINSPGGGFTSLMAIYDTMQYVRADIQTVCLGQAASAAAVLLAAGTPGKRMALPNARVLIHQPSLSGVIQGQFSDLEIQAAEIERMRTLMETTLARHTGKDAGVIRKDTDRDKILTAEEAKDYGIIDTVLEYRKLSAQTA
UniProt P9WNZ1, whole entry: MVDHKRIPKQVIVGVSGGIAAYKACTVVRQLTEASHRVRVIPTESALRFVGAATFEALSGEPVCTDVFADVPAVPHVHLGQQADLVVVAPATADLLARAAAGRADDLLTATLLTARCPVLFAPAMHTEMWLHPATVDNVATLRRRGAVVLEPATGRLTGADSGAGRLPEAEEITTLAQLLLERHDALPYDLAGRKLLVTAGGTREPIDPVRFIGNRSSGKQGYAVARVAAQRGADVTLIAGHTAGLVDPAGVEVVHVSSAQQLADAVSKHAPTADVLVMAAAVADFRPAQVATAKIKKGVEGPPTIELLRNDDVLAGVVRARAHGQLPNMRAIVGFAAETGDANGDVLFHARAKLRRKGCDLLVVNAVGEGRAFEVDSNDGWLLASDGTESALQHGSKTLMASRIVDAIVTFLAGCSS
UniProt A4I591, 1-473: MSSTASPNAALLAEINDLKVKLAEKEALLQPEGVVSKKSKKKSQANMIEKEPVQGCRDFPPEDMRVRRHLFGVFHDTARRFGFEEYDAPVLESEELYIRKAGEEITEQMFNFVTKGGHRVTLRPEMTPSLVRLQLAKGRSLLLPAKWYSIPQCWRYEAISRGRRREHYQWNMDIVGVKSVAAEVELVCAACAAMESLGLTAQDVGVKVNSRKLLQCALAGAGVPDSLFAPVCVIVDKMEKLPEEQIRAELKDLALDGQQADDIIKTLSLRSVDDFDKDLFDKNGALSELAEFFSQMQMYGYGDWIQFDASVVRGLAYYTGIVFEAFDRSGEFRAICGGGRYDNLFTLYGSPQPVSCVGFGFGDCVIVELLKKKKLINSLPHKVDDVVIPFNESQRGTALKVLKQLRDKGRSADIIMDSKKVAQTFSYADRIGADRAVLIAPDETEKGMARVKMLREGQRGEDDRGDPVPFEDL

Source: ChEMBL document CHEMBL3988442, “University of Dundee, Small-Polar-MMV Screening Library” (2021).

ClpP1P2: 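ClpP1P2, Mycobacterium tuberculosis (UniProt P9WPC5 and UniProt P9WPC3). Protease assay of ClpP1P2, read by the AMC dye that it sets free. Compounds at 50 µM. Direction is inferred from only a few compounds that gave an IC50; most scored high, so higher reads as stronger inhibition. Most other retested compounds had strongly negative values. Of about 69,000 compounds tested this way, about 10 (0.015%) reached 50% or more in at least one test.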
CoaBC: 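Enzyme assay of CoaBC with a phosphate dye (Biomol Green) read at 650 nm. Target: Coenzyme A biosynthesis protein CoaBC, Mycobacterium tuberculosis (UniProt P9WNZ1). Tested at 30 µM. Direction is inferred from only a few compounds that gave an IC50; most scored high, so higher reads as stronger inhibition. Most strong results did not repeat in a second test. About 67,000 compounds were tested under these conditions; 0.06% (about 40) showed 50% or more at least once.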
Leishmania in macrophages: 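Cell assay of Leishmania donovani living inside macrophages; the read-out is not stated. Compounds at 30 µM. The record gives no direction; compounds that gave an IC50 in retests scored well above the rest, so higher reads as stronger inhibition. Of about 69,000 compounds tested this way, about 1,000 (1.5%) reached 50% or more in at least one test.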
LiHisRS: 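Enzyme assay of histidyl-tRNA synthetase; the read-out is not stated. Target: Histidine-tRNA ligase, Leishmania infantum (UniProt A4I591). Tested at 30 µM. Higher reads as stronger inhibition (inferred: compounds with an IC50 in retests scored well above the rest). The assay is labelled LdHisRS but filed under L. infantum. Of about 69,000 compounds tested this way, about 410 (0.6%) reached 50% or more in at least one test.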

Results are given as percent effect. The record does not define 0% and 100%; most values in the screen are far below 50% and negative numbers occur (in some assays of this library far below -100). The compounds are a random part of those screened. Two or more numbers in one place are separate tests of the same structure; such repeats can differ widely. A dash means the value is not listed here; it may have been measured.

Cc1cccc(CNC(=O)Nc2ccn(CCCC(=O)N(C)C)n2)c1 gave ClpP1P2: 0.05309%; CoaBC: 2.679%; Leishmania in macrophages: 15.31%; LiHisRS: -1.042%.
CC(=O)N1CC(=O)N(c2cnn(C)c2)CC12CCN(Cc1cccs1)C2 (centres undefined) gave ClpP1P2: 2.697%; CoaBC: 2.353%; LiHisRS: -6.422%.
CN(C)c1cc(C(=O)NCc2cccnc2-n2cncn2)ccn1 gave ClpP1P2: -2.338%; CoaBC: 2.036%; Leishmania in macrophages: 5.822% and 12.61%; LiHisRS: 17.95%.
CSCc1cc(F)ccc1CNCc1ncc[nH]1 gave ClpP1P2: -16.97%; CoaBC: 0%; Leishmania in macrophages: -14.42%; LiHisRS: -26.19%.
CCOc1ccccc1C1CCCN1 (centres undefined) gave ClpP1P2: -4.996%; CoaBC: 2.024%; LiHisRS: 11.43%.
Cc1cc(CN2CCN(CC3CC3)[C@@H]3CS(=O)(=O)C[C@@H]32)cc(C)c1O gave ClpP1P2: -1.834%; CoaBC: 0.7712%; LiHisRS: 8.333%.
O=C(c1ccc2[nH]nnc2c1)N1CCCC(n2cccn2)C1 (centres undefined) gave ClpP1P2: -13.64%; CoaBC: 8.855%; Leishmania in macrophages: 27.01%; LiHisRS: 14.88%.
CC(C)CC(NC(=O)c1cccc(F)c1F)C(=O)Nc1cc[nH]n1 (centres undefined) gave ClpP1P2: -5.349%; CoaBC: -0.9091%; Leishmania in macrophages: 15.94%; LiHisRS: 19.18%.
O=C(O)C(F)(F)F.O=C(O)C(F)(F)F.[H][C@@]12COC[C@]1([H])[C@@H](OCc1ccccn1)CN2Cc1cccc(C)n1 gave Leishmania in macrophages: 10.8%.
Cc1nn(C)c(C)c1C1CCCN1C(=O)c1ccc(C(N)=O)s1 (centres undefined) gave ClpP1P2: 2.818%; CoaBC: -0.8917%; Leishmania in macrophages: 6.627%; LiHisRS: 3.109%.
Cc1n[nH]c(C)c1CNC(=O)CSCc1ccccc1Cl gave ClpP1P2: 0.9105%; CoaBC: 0.9709%; Leishmania in macrophages: -50.06%; LiHisRS: 9.639%.
Cn1cc(CN2CCn3cnc(COCC4CC4)c3C2)cn1.O=C(O)C(F)(F)F gave Leishmania in macrophages: -2.264%.
[H][C@@]12C[C@H](C)O[C@]1([H])CCN(C(=O)c1ccncn1)C2 gave Leishmania in macrophages: 9.07%.
Nc1cc(C(=O)N2CCCC(C(=O)CCc3ccccc3)C2)ccn1 (centres undefined) gave ClpP1P2: -13.73%; CoaBC: 4.43%; Leishmania in macrophages: -9.039%; LiHisRS: 8.434%.
O=C(CCNCc1cccc2c1OCCCO2)NC1CCCC1 gave ClpP1P2: 11.03%; CoaBC: -3.804%; Leishmania in macrophages: -0.1981%; LiHisRS: 9.804%.
Cc1ccc(NC2CCN(C(=O)Cc3c(C)nn(C)c3C)CC2)nn1 gave ClpP1P2: -22.57%; CoaBC: 5.957%; Leishmania in macrophages: 18.95%; LiHisRS: 17.86%.
CCN(C)C(=O)c1cccc(C(=O)N(C)Cc2cccc(O)c2)c1 gave ClpP1P2: -9.905%; CoaBC: -3.14%; Leishmania in macrophages: 32.87%; LiHisRS: -2.041%.
Fc1ccc(OC2CCN(CCn3cncn3)CC2)cc1 gave ClpP1P2: -21.05%; CoaBC: 3.426%; Leishmania in macrophages: -5.36%; LiHisRS: 12.33%.
O=C1CC(c2ccsc2)c2c(n(C3CCOCC3)[nH]c2=O)N1 (centres undefined) gave ClpP1P2: 2.96%; CoaBC: -4.711%; Leishmania in macrophages: 7.945%; LiHisRS: 11.65%.
Cc1ccc(C2CCCN2S(=O)(=O)N(C)Cc2nccn2C)o1 (centres undefined) gave ClpP1P2: -10%; CoaBC: -1.018%; Leishmania in macrophages: 34.89% and -30.17%; LiHisRS: 23.08%.
Cc1ccc(C)c(NC(=O)c2coc(C)n2)c1 gave ClpP1P2: -3.192%; CoaBC: 2.913%; Leishmania in macrophages: 16.35%; LiHisRS: 12.05%.
Cn1ccnc1CNC(=O)Nc1ccc(OC2CCC2)c(F)c1 gave ClpP1P2: -0.3979%; CoaBC: 0.2169%; Leishmania in macrophages: 14.58%; LiHisRS: 3.125%.
[H][C@]12COC[C@H](N3CCN(C)CC3)[C@@]1([H])CN(Cc1cccnc1)C2 gave Leishmania in macrophages: 24.1%.
C[C@H]1CN(C(=O)c2ccoc2)C[C@@]12CCN(CCN(C)C)C2=O gave ClpP1P2: 17.78%; CoaBC: 3.294%; LiHisRS: 32.11%.
CCN1CCc2c(sc3c2C(=O)NC(/C=C/c2ccco2)N3)C1 (centres undefined) gave ClpP1P2: 23.97%; CoaBC: 0%; Leishmania in macrophages: -10.57%; LiHisRS: 15.17%.
[H][C@@]12CCN(Cc3cnn(C)c3)C[C@@]1([H])[C@H](C(=O)N1CCCCO1)CCO2 gave Leishmania in macrophages: 20.14%.
COCc1nn(CC2CC2)c2c1CN(Cc1ccco1)CC2 gave ClpP1P2: -19.19%; CoaBC: 5.089%; LiHisRS: 17.48%.

Some entries from above, unchanged:

compound	ClpP1P2	CoaBC	Leishmania in macrophages	LiHisRS
[H][C@@]12CCN(Cc3cnn(C)c3)C[C@@]1([H])[C@H](C(=O)N1CCCCO1)CCO2	-	-	20.14	-
CCN(C)C(=O)c1cccc(C(=O)N(C)Cc2cccc(O)c2)c1	-9.905	-3.14	32.87	-2.041
Cc1cccc(CNC(=O)Nc2ccn(CCCC(=O)N(C)C)n2)c1	0.05309	2.679	15.31	-1.042